Measurements reported in PubChem BioAssay AID1224827 (NIAID, 2016).
Shown is a random part of about 3,800 deposited reagents. About 2,200 of them (57%) were called active. 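Active means a strong reporter change in either direction; calls are per siRNA, not per gene; qiagen siRNAs gave weaker effects.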 Entries without a mark were called inactive. Reagents against one gene are numbered here.

- Screen: 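Confirm genes whose knock-down changes LPS-driven TNF promoter activity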 (follow-up of hits)
- Cells: RAW264.7 G9 mouse macrophage reporter clone
- Knock-down reagent: single siRNA against mouse genes, 100 nM siRNA
- Timing: siRNA for 2 days, then LPS about 16 h
- Treatment: bacterial lipopolysaccharide (LPS), 10 ng/ml, cells fixed after overnight (about 16 h) stimulation
- Measured: 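TNF promoter reporter red fluorescence in nuclei, background subtracted, normalised per plate and to non-targeting control siRNA, as z-scores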
- Direction: TNF reporter z-score, mean and TNF reporter z-score: higher = stronger Tnf promoter reporter signal; gene median z, three same-vendor siRNAs: higher = stronger Tnf reporter signal for the gene
- Hit rule: 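Active siRNA: replicate-mean z-score of 2 or more, or -2 or less; no calls for control wells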

gene,reagent,"TNF reporter z-score, mean","gene median z, three same-vendor siRNAs","TNF reporter z-score, repeat 1","TNF reporter z-score, repeat 2"
Ier5,1,0.969,-1.95,1.01,0.925
Ier5,2,-1.99,-1.95,-1.96,-2.01
Ier5,3,-2.73 (active),-1.95,-3.52,-1.94
Ephx2,1,1.56,-3.05,-0.926,4.05
Ephx2,2,-3.05 (active),-3.05,-3.57,-2.54
Ephx2,3,-4.08 (active),-3.05,-4.06,-4.11
Ephx2,4,2.07 (active),-3.05,4.44,-0.301
Ephx2,5,-3.05 (active),-3.05,-3.18,-2.92
Ephx2,6,-3.96 (active),-3.05,-4.05,-3.87
Tmem18,1,0.868,-2.37,0.422,1.31
Tmem18,2,-2.37 (active),-2.37,-1.61,-3.13
Tmem18,3,-4.4 (active),-2.37,-4.83,-3.97
Tmem18,4,1.35,-0.465,3.36,-0.666
Tmem18,5,-0.745,-0.465,-0.265,-1.23
Tmem18,6,1.11,-0.465,6.36,-4.14
Il17a,1,-2.59 (active),-3.15,-2,-3.19
Il17a,2,-3.06 (active),-3.15,-3.01,-3.12
Il17a,3,-4.91 (active),-3.15,-5.35,-4.47
Il17a,4,3.11 (active),0.279,5.82,0.4
Il17a,5,1.88,0.279,3.6,0.157
Il17a,6,-0.466,0.279,0.0977,-1.03
Rps3,1,-0.76,-4.66,-0.878,-0.643
Rps3,2,-4.66 (active),-4.66,-4.36,-4.96
Rps3,3,-5.55 (active),-4.66,-5.36,-5.75
Rps3,4,3.31 (active),-0.465,7.02,-0.4
Rps3,5,1.9,-0.465,4.33,-0.53
Rps3,6,-1.24,-0.465,-0.891,-1.58
Cd209c,1,-2.26 (active),-3.99,-0.965,-3.56
Cd209c,2,-3.61 (active),-3.99,-2.79,-4.42
Cd209c,3,-4.77 (active),-3.99,-4.65,-4.88
Cd209c,4,0.761,0.19,1.51,0.0117
Cd209c,5,0.497,0.19,1.37,-0.378
Cd209c,6,-0.442,0.19,0.368,-1.25
Nav1,1,5.24 (active),-0.448,0.939,9.54
Nav1,2,-1.34,-0.448,0.0454,-2.73
Nav1,3,-1.61,-0.448,-0.942,-2.27
Nav1,4,2.27 (active),-0.27,4.38,0.165
Nav1,5,0.0933,-0.27,0.891,-0.705
Nav1,6,-1.37,-0.27,-0.712,-2.04

An excerpt from the list above, for reference:
gene,reagent,"TNF reporter z-score, mean","gene median z, three same-vendor siRNAs","TNF reporter z-score, repeat 1","TNF reporter z-score, repeat 2"
Nav1,3,-1.61,-0.448,-0.942,-2.27
Nav1,4,2.27 (active),-0.27,4.38,0.165
